# Screening data, single-dose tests

Protein sequences, listed by entry. Tags and fused reporters are not part of them. Residues count along the entry.
UniProt P9WNZ1, whole entry: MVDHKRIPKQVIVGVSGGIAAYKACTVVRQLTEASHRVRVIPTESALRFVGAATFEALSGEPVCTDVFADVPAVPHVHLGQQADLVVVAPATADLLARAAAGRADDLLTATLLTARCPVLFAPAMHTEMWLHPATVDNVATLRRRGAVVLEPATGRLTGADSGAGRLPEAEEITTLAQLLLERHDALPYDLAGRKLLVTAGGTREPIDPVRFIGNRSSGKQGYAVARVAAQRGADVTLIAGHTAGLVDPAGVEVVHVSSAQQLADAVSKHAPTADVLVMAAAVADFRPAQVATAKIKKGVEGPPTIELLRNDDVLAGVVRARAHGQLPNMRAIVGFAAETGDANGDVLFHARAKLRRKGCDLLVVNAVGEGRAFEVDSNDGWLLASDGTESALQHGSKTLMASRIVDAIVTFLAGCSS
UniProt I6X8D2, whole entry: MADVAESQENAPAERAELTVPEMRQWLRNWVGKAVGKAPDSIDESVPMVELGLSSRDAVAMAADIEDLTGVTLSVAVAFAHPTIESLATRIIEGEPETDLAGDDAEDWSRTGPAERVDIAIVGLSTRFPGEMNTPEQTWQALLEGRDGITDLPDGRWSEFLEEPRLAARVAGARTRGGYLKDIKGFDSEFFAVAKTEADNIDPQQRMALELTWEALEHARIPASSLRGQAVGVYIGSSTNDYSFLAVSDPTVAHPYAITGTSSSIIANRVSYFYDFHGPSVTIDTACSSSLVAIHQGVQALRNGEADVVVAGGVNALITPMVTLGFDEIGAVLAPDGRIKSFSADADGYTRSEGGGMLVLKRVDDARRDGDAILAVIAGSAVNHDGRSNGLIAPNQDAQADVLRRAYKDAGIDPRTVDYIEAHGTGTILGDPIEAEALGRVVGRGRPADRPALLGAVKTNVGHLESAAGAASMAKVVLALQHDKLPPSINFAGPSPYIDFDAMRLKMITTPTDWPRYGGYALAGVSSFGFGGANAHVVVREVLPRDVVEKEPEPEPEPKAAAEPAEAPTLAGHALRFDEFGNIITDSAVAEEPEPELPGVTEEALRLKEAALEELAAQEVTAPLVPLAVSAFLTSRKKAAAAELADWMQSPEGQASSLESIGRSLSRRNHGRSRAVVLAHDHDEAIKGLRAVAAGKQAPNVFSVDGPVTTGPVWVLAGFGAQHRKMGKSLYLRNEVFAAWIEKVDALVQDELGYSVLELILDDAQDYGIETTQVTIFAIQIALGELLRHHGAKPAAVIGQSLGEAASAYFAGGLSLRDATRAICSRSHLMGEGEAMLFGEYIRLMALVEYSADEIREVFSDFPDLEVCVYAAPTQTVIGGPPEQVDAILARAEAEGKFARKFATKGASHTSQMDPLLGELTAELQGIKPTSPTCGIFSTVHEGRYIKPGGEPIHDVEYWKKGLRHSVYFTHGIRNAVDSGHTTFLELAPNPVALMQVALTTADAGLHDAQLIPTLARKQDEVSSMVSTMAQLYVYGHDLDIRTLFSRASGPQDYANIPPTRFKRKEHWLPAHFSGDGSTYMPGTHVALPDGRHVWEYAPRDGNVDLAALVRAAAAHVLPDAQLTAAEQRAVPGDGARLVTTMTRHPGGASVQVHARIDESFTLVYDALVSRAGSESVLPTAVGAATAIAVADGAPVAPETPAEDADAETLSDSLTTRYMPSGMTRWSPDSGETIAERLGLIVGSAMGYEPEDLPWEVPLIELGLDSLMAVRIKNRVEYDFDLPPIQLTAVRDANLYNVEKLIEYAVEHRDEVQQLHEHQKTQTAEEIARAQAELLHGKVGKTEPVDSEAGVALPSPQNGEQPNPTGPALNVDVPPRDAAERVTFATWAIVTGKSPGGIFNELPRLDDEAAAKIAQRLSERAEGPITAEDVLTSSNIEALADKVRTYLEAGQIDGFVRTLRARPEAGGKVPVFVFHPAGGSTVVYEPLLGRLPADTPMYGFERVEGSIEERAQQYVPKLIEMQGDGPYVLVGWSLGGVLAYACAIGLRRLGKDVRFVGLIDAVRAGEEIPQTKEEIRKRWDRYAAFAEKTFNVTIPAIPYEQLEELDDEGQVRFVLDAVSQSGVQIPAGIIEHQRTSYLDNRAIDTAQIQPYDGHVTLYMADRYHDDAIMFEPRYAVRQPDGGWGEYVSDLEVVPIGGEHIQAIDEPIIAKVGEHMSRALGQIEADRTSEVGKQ
UniProt P9WFT3, whole entry: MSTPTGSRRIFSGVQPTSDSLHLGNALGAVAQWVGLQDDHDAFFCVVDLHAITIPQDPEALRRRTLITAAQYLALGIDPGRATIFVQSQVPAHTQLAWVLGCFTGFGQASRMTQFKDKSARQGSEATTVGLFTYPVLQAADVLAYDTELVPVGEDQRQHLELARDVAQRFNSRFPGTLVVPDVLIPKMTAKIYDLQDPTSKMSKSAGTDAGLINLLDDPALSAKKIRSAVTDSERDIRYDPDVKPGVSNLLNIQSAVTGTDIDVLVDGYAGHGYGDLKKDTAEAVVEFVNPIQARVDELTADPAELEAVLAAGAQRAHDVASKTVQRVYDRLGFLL
UniProt A4I591, 1-473: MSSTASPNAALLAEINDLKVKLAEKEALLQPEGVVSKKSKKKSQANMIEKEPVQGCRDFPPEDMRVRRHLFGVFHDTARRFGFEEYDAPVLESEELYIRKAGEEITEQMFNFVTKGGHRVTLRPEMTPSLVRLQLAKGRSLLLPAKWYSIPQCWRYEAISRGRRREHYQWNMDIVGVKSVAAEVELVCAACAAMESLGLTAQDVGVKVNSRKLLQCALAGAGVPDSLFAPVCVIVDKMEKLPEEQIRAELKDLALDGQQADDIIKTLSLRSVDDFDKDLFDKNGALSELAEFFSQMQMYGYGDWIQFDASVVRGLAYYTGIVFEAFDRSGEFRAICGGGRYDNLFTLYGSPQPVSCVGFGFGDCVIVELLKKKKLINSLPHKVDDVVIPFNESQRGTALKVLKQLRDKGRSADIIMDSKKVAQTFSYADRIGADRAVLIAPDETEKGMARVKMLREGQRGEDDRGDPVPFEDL

Source: ChEMBL document CHEMBL3988442, “University of Dundee, Small-Polar-MMV Screening Library” (2021).

A: 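Enzyme assay of CoaBC with a phosphate dye (Biomol Green) read at 650 nm. Target: Coenzyme A biosynthesis protein CoaBC, Mycobacterium tuberculosis (UniProt P9WNZ1). Concentration: 30 µM. Direction is inferred from only a few compounds that gave an IC50; most scored high, so higher reads as stronger inhibition. Most strong results did not repeat in a second test. Size under these conditions: about 67,000 compounds, about 40 of them at 50% or above in at least one test.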
B: 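Enzyme assay of the thioesterase domain of polyketide synthase 13; the read-out is not stated. Target: Polyketide synthase Pks13, Mycobacterium tuberculosis (UniProt I6X8D2). Tested at 30 µM. The record gives no direction; the compounds picked for IC50 retests had high values, so higher reads as stronger inhibition. About 67,000 compounds were tested under these conditions; 0.46% (about 300) showed 50% or more at least once.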
C: 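Tryptophan-tRNA ligase, Mycobacterium tuberculosis (UniProt P9WFT3). Enzyme assay of tryptophanyl-tRNA synthetase; the read-out is not stated. Tested at 10 µM. Higher most likely means stronger inhibition; the record gives no direction and few retests gave an IC50. Size under these conditions: about 65,000 compounds, about 64 of them at 50% or above in at least one test.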
D: 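Enzyme assay of histidyl-tRNA synthetase; the read-out is not stated. Target: Histidine-tRNA ligase, Leishmania infantum (UniProt A4I591). Tested at 30 µM. The record gives no direction; compounds that gave an IC50 in retests scored well above the rest, so higher reads as stronger inhibition. The assay is labelled LdHisRS but filed under L. infantum. About 69,000 compounds were tested under these conditions; 0.6% (about 410) showed 50% or more at least once.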

The filed quantity is “Percent Effect” (%). How 0% and 100% were set is not recorded. Most values in the screen are low, and negative values occur. This is an unselected part of the compounds tested.

compound: CN(Cc1noc(C2CC2)n1)CC1CCN(CCO)CC1
A: -19.87
B: 28.99
C: 4.145
D: -9.589

compound: COCC(=O)N1Cc2nccn2CC(CN(C)Cc2cccnc2)C1 (centres unmarked)
A: -1.269
B: -21.6
C: -4.362
D: 5.882

compound: COCCNC(=O)CCc1c(C)nn(-c2nc(C)c(C)c(=O)[nH]2)c1C
A: 0.3802
B: -11.76
C: -4.52
D: 16.5

compound: Cc1ccc2nc(CN3CCCC3c3cccnc3)cc(O)c2c1 (centres unmarked)
A: 2.457
C: 3.809
D: 19.84

compound: CC(C)n1[nH]c(=O)c2c1NC(=O)CSC2c1cccc(OCC(N)=O)c1 (centres unmarked)
A: 3.158
B: -5.389
C: -4.235
D: 11.03

compound: CN(Cc1cnc(N)nc1)CC1CCCN(CCc2ccc(Cl)cc2)C1 (centres unmarked)
A: 0
B: -17.32
C: 2.81
D: 7.692

compound: COc1cc(C(=O)NCC2(N(C)C)CCN(C)CC2)c2ccccc2n1
A: -5.425
B: 3.353
C: -9.367
D: 8.451

compound: COCCNC(=O)c1ccc2c(=O)n3c(nc2c1)CCN(C)CC3
A: 1.456
B: -12.87
C: 18.39
D: 10

compound: C=Cn1ncc(CN2CCC(c3ncc(Cl)cc3S(C)(=O)=O)CC2)c1C
A: -10.17
B: -4.489
C: 67.3
D: -1.399

compound: Cc1csc(CNC(=O)NCC(O)c2ccccc2)n1 (centres unmarked)
A: -0.9615
B: 6.914
C: -0.6173
D: 9.589

compound: Cn1ncc2c(=O)[nH]c(CN3CCCC3Cc3ccc(F)cc3)nc21 (centres unmarked)
A: 4.725
B: -0.837
C: -8.731
D: 13.39

compound: Cn1cc2ncn(CCCOc3cccnc3)c(=O)c2n1
A: 2.885
B: -7.06
C: -0.2283
D: 18.75

compound: C=C(Cl)CN1CCC(C(=O)c2cc(F)ccc2F)CC1
A: -3.191
B: -4.393
C: -0.7862
D: 2.4

compound: O=C1CC(c2cccs2)Cc2nc(O)c(C(=O)N3CCCC3)cc21 (centres unmarked)
A: -6.638
B: -28.78
C: -3.99
D: 8.333

compound: Cc1cc(C)n(C2CN(c3nc(N)nc4c3CCCC4)C2)n1
A: 11.19
B: -8.815
C: 1.38
D: 15.56

compound: COc1ccc(Br)cc1CCC(=O)N1CCSCC1
A: 4.119
B: -31.54
C: 7.862
D: 23.94

compound: Cc1cnn(C2CCCN(C(=O)CCCOc3cccc(F)c3)C2)c1 (centres unmarked)
A: 11.23
B: -13.48
C: -2.827
D: -2.703

compound: COCc1nc(CN2CCC3(CCCO3)CCC2=O)no1 (centres unmarked)
A: -6.25
B: -7.963
C: 1.421
D: 28.16

compound: CCNc1ccnc(N2CCCC(CCOC)(C(=O)O)C2)n1 (centres unmarked)
A: -0.1209
B: -7.652
C: -0.3673
D: -3.226

compound: O=S(=O)(C1CC1)N1CCC2(CCCN(Cc3ccccn3)C2)C1 (centres unmarked)
A: 1.707
B: 7.977
D: 16.98

compound: O=C(OCc1ccccc1)c1cccc(NC(=O)C2COCCO2)c1 (centres unmarked)
A: 0.8739
B: -9.739
C: 0.1564
D: 4.959

compound: COc1ccc(CN2CCOC3(CCCN(C(C)=O)C3)C2)cc1 (centres unmarked)
A: 3.583
B: -26.81
C: 1.79
D: 31.43

compound: O=C(Cc1cnn(-c2ccccc2)n1)NC(C1CC1)C1CC1
A: 0.2445
B: -24.38
C: 0.8942
D: 16.44

compound: CCc1nc(C2CCCN2CC(=O)NCCc2ccsc2)no1 (centres unmarked)
A: 5.612
B: -34.13
C: -1.594
D: 18.18

compound: CNc1nc(C(=O)N2CCCC(COc3ccc(F)cc3)C2)cs1 (centres unmarked)
A: 6.418
B: 21.73
C: -2.067
D: 13.33

The first 2 entries again:

For CN(Cc1noc(C2CC2)n1)CC1CCN(CCO)CC1 the result was A: -19.87%; B: 28.99%; C: 4.145%; D: -9.589%.
For COCC(=O)N1Cc2nccn2CC(CN(C)Cc2cccnc2)C1 (centres unmarked) the result was A: -1.269%; B: -21.6%; C: -4.362%; D: 5.882%.